Assay results reported in patent publication US20110098242A1, “Methods and Compositions for Diagnosing and Treating Cervical Intraepithelial Neoplasia and Cervical Cancer” (priority 2008, published 2011).
Results are given in words; binding and its absence hold for the method and conditions named. In cells and extracts the contact can be indirect. Some results given as binding are weak or reduced against the parent protein; the word gives no strength. Tags and fused reporters may be left off the sequences shown.

Protein sequences, listed by entry. Tags and fused reporters are not part of them. Residues count along the entry.
UniProt P07711, residues 114-333: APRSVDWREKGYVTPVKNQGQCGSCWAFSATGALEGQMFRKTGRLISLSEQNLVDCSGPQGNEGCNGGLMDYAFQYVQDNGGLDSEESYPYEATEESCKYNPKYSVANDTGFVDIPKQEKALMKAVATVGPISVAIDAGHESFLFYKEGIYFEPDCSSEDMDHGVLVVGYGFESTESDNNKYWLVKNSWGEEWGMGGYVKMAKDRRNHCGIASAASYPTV

Target: cathepsin L (UniProt P07711)
Test: co-immunoprecipitation with anti-FLAG antibody from transfected HeLa cell lysates, Western blot; wild type is the reference

- binding: binds
B1: cystatin E/M protein (wild type, human), expressed from plasmid p3XFLAG-CMV-10 in transfected HeLa cells (protein, not shown: small tags and cut ends)
chain: RPQERMVGELRDLSPDDPQVQKAAQAAVASYNMGSNSIYYFRDTHIIKAQSQLVAGIKYFLTMEMGSTDCRKTRVTGDHVDLTTCPLAAGAQQEKLRCDFEVLVVPWQNSSQLLKHNCVQM
